The record followed here is patent publication US20250042994A1.

Sequences and labels used below:
B1: F3.124.7 (antibody, human IgG1, V domains shown)
VH: EVQLQQSGPVLVKPGASVKMSCKASGYTFTDYYMNWVKQRHGKSLEWIGISNPYNGGTSYNQKFKDKATLTVDKSSSTAYMELNSLTSEDSAVYYCAREGGTAQPTSGMDYWGQGTSVTVSS
VL: NIMMTQSPSSLAVSAGEKVTMSCKSSQSVLYSSNQKNYLAWYQQKPGQSPKLLIYWASTRESGVPDRFTGSGSGTDFTLTISSVQPEDPAVYYCHQYRSSYTFGGGTKLEIK
B2: F5.11.2 (antibody, human IgG1, V domains shown)
VH: EVQLVESGGDLVKPGGSLKLSCAASGFTFSSYGMSWVRQTPDKRLEWVATISHGGSYTHYPDSVKGRFTISRDNAKNTLYLQMNSLKSEDTAMYYCVRLPITTVEAPYFFDYWGQGTTLTVSS
VL: DIQMTQTTSSLSASLGDRVTISCRASQDIRNYLNWYQQKPDGTVKLLIYYTSILHSGVPSRFSGSGSGTDYSLTINNLEQEDVATYFCQQGNTLYTFGGGTEVELR
B3: F3.121.4-L1H1 (antibody, mouse IgG1, kappa, V domains shown)
VH: EVQLVQSGAEVKKPGASVKVSCKASGYTFTNYWMHWVRQAPGQRLEWMGEIDPSDNYANYNQEFQGRVTITVDKSASTAYMELSSLRSEDTAVYYCARHDGYFGALDYWGQGTTVTVSS
VL: EIVLTQSPATLSLSPGERATLSCSASSSISSNYLHWYQQKPGQAPRFLIYRTSNLASGIPARFSGSGSGTDFTLTISSLEPEDFAVYYCQQASSIPRMFTFGQGTKLEIKR
B4: F3.121.4-L3H2 (antibody, mouse IgG1, kappa, V domains shown)
VH: B3 VH with R44G
VL: EIVLTQSPDFQSVTPKEKVTITCSASSSISSNYLHWYQQKPDQSPKFLIYRTSNLASGVPSRFSGSGSGTDFTLTINSLEAEDAATYYCQQASSIPRMFTFGQGTKLEIKR
B5: F3.121.4-L1H2 (antibody, mouse IgG1, kappa, V domains shown)
VH: B3 VH with R44G
VL: B3 VL
B6: F3.121.4-L2H1 (antibody, mouse IgG1, kappa, V domains shown)
VH: B3 VH
VL: B4 VL with F47L, Y50K
B7: F3.121.4-L2H2 (antibody, mouse IgG1, kappa, V domains shown)
VH: B3 VH with R44G
VL: B4 VL with F47L, Y50K
B8: F3.121.4-L3H1 (antibody, mouse IgG1, kappa, V domains shown)
VH: B3 VH
VL: B4 VL

Where a chain is given by its changes, count along the chain named. These are yes or no findings as the source states them, for the method shown. For some assays here: Binding calls can cover weak binding; strength is not graded here.

The target in the first experiment is monkey CD19 protein (monkey). Put plainly: ELISA, coated monkey CD19. A general note: An ELISA detects its analyte on a solid surface through an enzyme-linked reagent.
B1: the binding entry is listed as “binds”.

Turning to B2, the binding result is “binds”.

Another experiment deals with monkey CD19 protein (monkey). As to the kind of experiment: ELISA.
With B3, the binding entry was “no binding”. With B4, the binding entry was “no binding”. With B5, the binding result is given as “no binding”. Take B6: the binding result is given as “no binding”. For B7, the binding entry is reported as “no binding”. Take B8: the binding entry is “no binding”.
